# Data reported in patent US20070270352A1, “Method of Treatment” (priority 2002, published 2007).
# Where two headings read alike, the source gives them in different places. At least one compound was matched to its structure with a doubt left.
# Tested on: p75^NTR (i.e. Chopper)-mediated cell apoptosis
# Assay type: cell-based, mice
SMILES,"Prevention of killing? (p75NTR (Chopper)-mediated apoptosis of neuronal cells, neuronal viability after Chopper peptide, inhibitor added just prior or pretreated)",Prevention of killing?
CC(C)C[C@@H]1NC(=O)[C@H](C)NC(=O)[C@H]([C@@H](C)O)NC(=O)[C@H](CCC(=O)O)NC(=O)[C@@H]2CCCN2C(=O)[C@H](C)NC(=O)[C@H](CCCCN)NC(=O)[C@@H]2CSSC[C@@H](C(=O)N[C@@H](CCC(N)=O)C(=O)N[C@@H](CCC(N)=O)C(=O)N[C@@H](Cc3cnc[nH]3)C(N)=O)NC(=O)[C@H](CCCNC(=N)N)NC(=O)[C@H](CCCNC(=N)N)NC(=O)[C@H](C)NC(=O)[C@H](CSSC[C@H](N)C(=O)N[C@@H](CC(N)=O)C(=O)N2)NC1=O [Apamin],No,
"COC(=O)C1=C(C)NC(C)=C(C(=O)OC)C1c1ccccc1[N+](=O)[O-] [Nefidipine, Nifedipine]",,No
